# In PubChem BioAssay AID2685 (National Center for Advancing Translational Sciences (NCATS), 2010):
# Some of the results follow. The main result of the screen is listed elsewhere. These columns were measured beside it and carry no call. Most of these compounds were active or inconclusive in the main read-out, so they are no random draw. The note in brackets gives the kind of curve behind each potency; many fits are weak.
# Test: qHTS Assay for Lipid Storage Modulators in Drosophila S3 Cells;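 on cell number change: cells counted by Cell Tracker Red CMTPX staining in the red channel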
# Details: BODIPY lipid droplet fluorescence, 18-24 h; for cell number change: measured here: cell count max response, cells fed with added oleic acid
# Summary of the method: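 Laser-scanning cytometry quantifies lipid droplet accumulation (500–530 nm total intensity; droplet/cell object ratio) in oleic acid-fed (400 uM added) Drosophila S3 cells treated with a concentration series. 20 uM Triacsin C defined 100% inhibition.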
# [1] = measured here: cell number channel AC50, cells fed with added oleic acid
# [2] = measured here: lipid fluorescence (Fed channel) AC50, cells fed with added oleic acid
Compound,cell number change,AC50 [1],AC50 [2]
O=C(Nc1sc2c(c1C(=O)O)CCC2)c1ccc(F)cc1,78.5%,"13 µM [rising, partial curve]",
O=C(NC1CCCCC1)c1cc([N+](=O)[O-])ccc1N1CCOCC1,18.6%,,"0.116 µM [falling, full curve, poor fit]"
COc1ccc(NC(=O)N2CCC(n3nnc4cc(C)ccc43)CC2)cc1,9.56%,,"1.64 µM [rising, partial curve, poor fit]"
Cc1ccc(S(=O)(=O)N2CCCCC2)cc1NC(=O)c1cc2ccccc2o1,-3.41%,"6.51 µM [rising, single point]","9.2 µM [falling, partial curve, poor fit]"
Cc1cc(N(C)Cc2ccccc2)nc2cc(O)ccc12,-16.7%,,
Cc1sc2nc(SCC(=O)Nc3ccccc3F)[nH]c(=O)c2c1C,5.13%,"0.731 µM [rising, single point]",
CC(C)c1ccc(N2C(=O)CC(Sc3ncn[nH]3)C2=O)cc1 (configuration not stated),3.2%,,"29.1 µM [falling, single point]"
CCCC(c1nnnn1C1CCCCC1)N1CCN(C2CCCC2)CC1 (configuration not stated),-23.1%,,"29.1 µM [falling, partial curve, poor fit]"
COc1cc(/C=C/C(=O)OC(C)C(=O)c2ccccc2)cc(OC)c1OC (configuration not stated),-23.6%,,"1.64 µM [falling, partial curve, poor fit]"
Cn1c(=O)c(C(=O)NNC(=O)c2ccccc2Cl)c(O)c2ccccc21,8.33%,,"29.1 µM [falling, single point]"
O=C(Nc1nnc(-c2ccco2)o1)c1ccc2ccccc2c1,-10.3%,,"29.1 µM [rising, single point]"
O=C(Nc1cccnc1)c1ccc(S(=O)(=O)c2ccccc2)cc1,4.13%,,
COCCNC(=O)Cn1cc(/C=C(\C#N)C(=O)NC2CC2)c2ccccc21,36%,"0.82 µM [rising, full curve, poor fit]",
CSc1ccccc1C(=O)N1CCN(c2cccc(Cl)c2)CC1,11.9%,,"0.103 µM [rising, partial curve, poor fit]"
COc1ccc(-c2cc(=O)oc3cc(OC(C)C(=O)NCc4ccccn4)ccc23)cc1 (configuration not stated),-19%,,
O=C(O)CCCn1c(=O)[nH]c2ccccc2c1=O,-11.2%,"0.651 µM [falling, full curve, poor fit]","0.461 µM [falling, full curve, poor fit]"
C#C[C@]1(O)CC[C@H]2[C@@H]3CCC4=CC(=O)CC[C@@H]4[C@H]3CC[C@@]21CC,24.8%,,"23.1 µM [rising, single point]"
COc1ccc([N+](=O)[O-])cc1N(CC(=O)O)S(C)(=O)=O,-0.319%,,
Cc1cc(=O)oc2cc(OC(C)C(=O)NCCc3ccc(S(N)(=O)=O)cc3)ccc12 (configuration not stated),5.2%,,"29.1 µM [rising, single point]"
COc1ccc2oc(C(=O)NCCc3ccccc3)c(C)c2c1,,,"0.58 µM [rising, single point]"
O=Cc1ccc(O)c2ncccc12,0.279%,,

Compound,cell number change,AC50 [1],AC50 [2]
CCNC(=O)CC1C(=O)N(c2ccc(F)cc2)C(=O)N1Cc1ccc(OC)cc1 (configuration not stated),-12%,,
CCOc1ccc(NS(=O)(=O)c2cccc(C(=O)N(C)Cc3ccco3)c2)cc1,-25.5%,,"5.8 µM [falling, full curve, poor fit]"
O=C(Nc1ccc(F)cc1)c1cccnc1NCCc1ccccc1,-27.5%,,"32.6 µM [falling, single point]"
Cc1ccc(CC(=O)NCc2ccc3c(c2)OCO3)cc1,0.586%,,"0.00461 µM [falling, full curve, poor fit]"
COC(=O)Nc1ccc2c(c1)ncn2C1CCCCC1,31.5%,"20.6 µM [rising, single point]",
COc1ccc(C(=O)NCCc2nnc3ccc(SCC(=O)NCc4ccc(F)cc4)nn23)cc1,-18.4%,,
COc1ccc(C)cc1NC(=O)CN(c1ccccc1)S(C)(=O)=O,,,"1.84 µM [rising, partial curve]"
Cc1cc2cc(CN(Cc3ccc4c(c3)OCO4)C(=O)c3cnccn3)c3nnnn3c2cc1C,5.43%,,"0.517 µM [rising, full curve]"
FC(F)(F)c1ccc(N/N=C/c2cccnc2)nc1,12.6%,,
Cc1ccc(C)c(N(CC(=O)NC2CCCC2)C(=O)CNC(=O)c2cccs2)c1,-14.1%,,"6.51 µM [falling, single point]"
CSC1=N/C(=C\c2ccc(C)s2)C(=O)S1,,"6.51 µM [falling, single point]","18.4 µM [rising, partial curve]"
CC(C)(C)NC(=O)C1CCC(CNc2c(N3CCCCC3)c(=O)c2=O)CC1 (configuration not stated),46.5%,"11.6 µM [rising, partial curve, poor fit]","18.4 µM [rising, partial curve]"
CC(C)C(=O)N1CCN(c2ccccc2N)CC1,-4.74%,,"2.59 µM [rising, single point]"
COc1ccc(NC(=O)COc2cccnc2[N+](=O)[O-])cc1OC,7.93%,"0.731 µM [falling, single point]",
O=C(COC(=O)c1ccccc1[N+](=O)[O-])NNC(=O)c1cccs1,-15.2%,,
Cc1ccc2oc(-c3cccc(NC(=S)NC(=O)/C=C/c4ccco4)c3)nc2c1,27.1%,,
CC1CCN(c2nc3c(c(=O)[nH]c(=O)n3C)n2CC(C)CSc2nnnn2-c2ccccc2)CC1 (configuration not stated),3.92%,"0.517 µM [falling, single point]","29.1 µM [rising, single point]"
CCOc1ccccc1NC(=O)c1cccc(N2C(=O)CCC2=O)c1,2.97%,,"29.1 µM [falling, single point]"
COc1ccc(NC(=O)COC(=O)CCc2cc(OC)c(OC)c(OC)c2)c([N+](=O)[O-])c1,14%,,"6.51 µM [rising, single point]"
C=CCn1c(SCC(=O)NC2CC2)nnc1-c1cccc(OC)c1,-0.99%,"2.91 µM [rising, single point]","29.1 µM [falling, single point]"
O=C(O)CS(=O)(=O)CC(=O)NCc1cccc(C(F)(F)F)c1,131%,"16.4 µM [rising, partial curve]",

Compound,cell number change,AC50 [1],AC50 [2]
COC(=O)C1=C(C)N=c2s/c(=C3\C(=O)Nc4ccccc43)c(=O)n2C1c1ccccc1 (configuration not stated),-33.5%,"8.2 µM [falling, partial curve]","10.3 µM [falling, partial curve]"
Cc1nc(CNS(=O)(=O)c2ccc(F)cc2)cs1,-47.9%,"20.6 µM [falling, partial curve]","29.1 µM [falling, single point]"
Cc1cnc(NC(=O)c2nn(C)cc2[N+](=O)[O-])s1,135%,"18.4 µM [rising, partial curve]",
COc1ccc([N+](=O)[O-])cc1N(CC(=O)NCCCOC(C)C)S(C)(=O)=O,-14.3%,,"29.1 µM [falling, single point]"
Cc1ccc(CSc2ncnc3c2cnn3Cc2ccccc2)cc1,38.5%,"7.31 µM [rising, partial curve, poor fit]","6.51 µM [falling, single point]"
Cc1csc(SCC(=O)Nc2cc(S(=O)(=O)N(C)C)ccc2C)n1,57%,"18.4 µM [rising, single point]",
O=S(=O)(c1ccc(Br)s1)N1CCN(Cc2ccc3c(c2)OCO3)CC1,12.7%,,
CCOc1cc(/C=C2/SC(=S)N(Cc3ccccc3)C2=O)ccc1O,-99.7%,"18.4 µM [falling, partial curve]","6.51 µM [falling, single point]"
COc1ccc(-n2c(SCC(=O)Nc3cccc(C(=O)O)c3)nnc2-c2ccco2)cc1,42.6%,"20.6 µM [rising, partial curve, poor fit]",
C=CCOn1c(=O)c(-c2cccs2)[n+]([O-])c2ccccc21,49.1%,"29.1 µM [rising, partial curve, poor fit]",
CNC(=S)N(C)/N=C1/C(=O)N(Cc2c(Cl)cccc2Cl)c2ccccc21,14%,,"0.00461 µM [rising, full curve, poor fit]"
Cc1ccc(NC2CCCN(C(=O)c3ccc(F)cc3)C2)cc1C (configuration not stated),34.8%,"29.1 µM [rising, single point]",
O=C(Cc1cc(=O)[nH]c(=O)[nH]1)NCC1CCCO1 (configuration not stated),0.443%,,"10.3 µM [rising, partial curve]"
CCOC(=O)c1cnc2c(-c3ccccc3)cnn2c1C,163%,,
Cc1cccc(NC(=O)c2cc(S(=O)(=O)N3CCc4ccccc43)cn2C)c1,0.865%,,
COc1cccc(OCc2cc(C(=O)NCc3ccc4c(c3)OCO4)no2)c1,38%,"11.6 µM [rising, partial curve]","6.51 µM [rising, partial curve]"
O=C1CCCC(O)=C1C=NCc1ccccc1,,"1.16 µM [falling, partial curve]",
Cc1ccc(NC(=O)c2sc(N)nc2C)cc1,-8.33%,"0.82 µM [falling, full curve, poor fit]",
COc1ccc(C2CC(c3ccccc3)=NN2S(=O)(=O)c2ccccc2)c(OC)c1 (configuration not stated),138%,"13 µM [rising, partial curve]","0.259 µM [rising, full curve]"

# A few values from the list:
# COc1ccc([N+](=O)[O-])cc1N(CC(=O)NCCCOC(C)C)S(C)(=O)=O – AC50 [2]: 29.1 µM [falling, single point]
# Cc1cccc(NC(=O)c2cc(S(=O)(=O)N3CCc4ccccc43)cn2C)c1 – cell number change: 0.865%
